Results reported in PMC5732323.
Results are given in words; binding and its absence hold for the method and conditions named. Binding seen in cells or lysates may run through a third protein. Some binding calls cover weakened binding; strength is not graded here.

The chains behind the UniProt entries cited, without tags or fusion partners.
UniProt P20263: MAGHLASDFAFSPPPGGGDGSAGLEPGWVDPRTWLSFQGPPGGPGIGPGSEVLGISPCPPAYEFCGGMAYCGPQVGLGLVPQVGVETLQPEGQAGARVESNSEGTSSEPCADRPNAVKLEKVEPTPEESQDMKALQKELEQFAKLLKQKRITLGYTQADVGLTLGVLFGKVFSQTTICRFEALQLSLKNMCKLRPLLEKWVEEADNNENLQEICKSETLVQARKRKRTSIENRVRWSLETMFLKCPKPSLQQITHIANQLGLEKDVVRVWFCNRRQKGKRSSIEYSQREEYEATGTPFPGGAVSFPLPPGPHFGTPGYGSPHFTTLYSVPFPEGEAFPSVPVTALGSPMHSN
UniProt Q99LT0: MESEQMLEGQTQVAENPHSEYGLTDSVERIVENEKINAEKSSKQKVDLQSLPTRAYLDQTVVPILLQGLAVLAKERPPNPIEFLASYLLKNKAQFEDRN

Molecular target: OCT4 (UniProt P20263)
Test: co-IP; anti-OCT4 on Protein G Dynabeads, 200 ug pre-cleared nuclear extract, IP buffer with 100 mM NaCl, 3 h at 4°C; MEFs at day 4 of MKOS reprogramming with control or Smad3CA vector; blots for DPY30 and p300

binding: binds
Substance: DPY30 (part of the MLL complex) (from UniProt Q99LT0 1-99)
